Measurements taken from WO2021175954A1 (dated 2021).
Substitutions are numbered along the chain they refer to. No constants are given. Whether binding was seen depends on the method and setting. Some results given as binding are weak or reduced against the parent protein; the word gives no strength.

B1: chimeric anti-BTNL8 mAb mAbX1 (antibody, V domains shown)
VH: QVQLQQSGAELARPGASVKLSCKASGYIFTSYGIGWVKQRTGQGLEWIGEVYPRNGHSYYNEKFKGKATLTADRSSSTAYMQLSSLTSEDSAVYFCARGGTGSQLDYWGQGTTLTVSS
VL: DIQMTQSPASLSASVGETVTITCRASENIYSYLAWYQQKQGKSPHLLVYNAKTLAEGVPSRFSGSGSGTQFSLRISSLQPEDFGNYYCQHHYGTYTFGGGTKLEIK
notes: also called mAbXl
B2: reference murine antibody mAb X4 (antibody, V domains shown)
VH: EVQLQQSGAELVRPGASVKLSCTASGFNIKDDYMHWVKQRPEQALEWIGRIDPANGNTKYVPKFQDKATITADTSSNTASLQLSSLTSEDTAVYYCARWGIYDGYYYTMDSWGQGTSVTVSS
VL: QNVLIQSPAIMSASPGEKVTITCSASSSVSYMHWFQQKPGTSPKLWIYSTSNLASGVPARFSGSGSGTSYSLTISRMEAADAATYFCQQRSRYPYTFGGGTKLEIK
notes: Murine monoclonal antibody, tested as hybridoma supernatant or purified from it
B3: reference murine antibody mAb X5 (antibody, V domains shown)
VH: EVQLQQSGAELVRPGASIKLSCTASGFNIEDDYMHWVRQRPVQGLEWIGRIDPANGNANFAPKFQDKATITADTSSNTAYLQLSSLASEDTAVYYCTREGGLYYGNSDAMDYWGQGTSVTVSS
VL: B2 VL with N2I, I5T, S26R, H33Q, F35I, A59D, A80E, F86Y, Y95R
notes: as for B2
B4: reference murine antibody mAb X1 (antibody, V domains shown)
VH: B1 VH
VL: B1 VL
notes: as for B2
B5: reference murine antibody mAb X2 (antibody, V domains shown)
VH: EVQLQQSGAEFVRPGASVKMSCTGSGLNIEDDYMHWVKQRPEQGLEWIGRIDPANGNTKYGPKFQDKATITADTSSNTAYLQLSSLTAEDTAVYYCTRNYYDGSLYYFDYWGQGTTLTVSS
VL: QIVLTQSPAIMSASLGEEITLTCSASSSVSYMHWYQQKSGTSPKLLIYSTSNLASGVPSRFSGSGSGTFYSLTISSVEAEDAADYYCHQWSRYPYTFGGGTKLEIK
notes: as for B2
B6: chimeric anti-BTNL8 mAb mAbX4 (antibody, V domains shown)
VH: B2 VH
VL: B2 VL
B7: chimeric anti-BTNL8 mAb mAbX5 (antibody, V domains shown)
VH: B3 VH
VL: B2 VL with N2I, I5T, S26R, H33Q, F35I, A59D, A80E, F86Y, Y95R
B8: chimeric anti-BTNL8 mAb mAbX2 (antibody, V domains shown)
VH: B5 VH
VL: B5 VL

What follows are binders tested against T1, recombinant human BTNL8 protein (BLI) (human, UniProt Q6UX41 18-238, limits assumed) (assay: BLI epitope binning, classical sandwich, recombinant human BTNL8 at 40 nM).
T1 construct: it may be the same rhBTNL8-Fc as in the Luminex assay; also called hBTNL8; recombinant BTNL8 protein
T1 sequence: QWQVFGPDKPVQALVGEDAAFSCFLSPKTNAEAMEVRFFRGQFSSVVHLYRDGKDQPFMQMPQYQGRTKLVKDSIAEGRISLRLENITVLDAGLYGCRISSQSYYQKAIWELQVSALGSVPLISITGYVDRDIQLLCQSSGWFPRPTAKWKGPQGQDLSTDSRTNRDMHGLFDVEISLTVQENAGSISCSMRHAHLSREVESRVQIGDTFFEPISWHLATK

binding, binds:
B1

The binders below were run against recombinant cynoBTNL8-Fc fusion protein (cynomolgus (Macaca fascicularis); human) (assay: ELISA, hybridoma supernatant on coated cynoBTNL8-Fc).

binding, binds:
B2
B3
B4
B5

The binders below were run against recombinant cynoBTNL8-Fc fusion protein (cynomolgus (Macaca fascicularis); human) (assay: binding to recombinant cynoBTNL8-Fc (data not shown; method not named)).

binding, binds:
B6
B7
B1
B8

The binders below were run against T1, recombinant human BTNL8 protein (BLI) (assay: BLI (OctetRed96), recombinant human BTNL8).

binding, binds:
B6
B7
B1
B8
